In PMC8927976:
These are yes or no findings as the source states them, for the method shown. Binding seen in cells or lysates may run through a third protein. Some results given as binding are weak or reduced against the parent protein; the word gives no strength. Sequences can lack the tags named with a protein.

By UniProt entry, the sequences of proteins in these tests, tags left out.
UniProt O04719: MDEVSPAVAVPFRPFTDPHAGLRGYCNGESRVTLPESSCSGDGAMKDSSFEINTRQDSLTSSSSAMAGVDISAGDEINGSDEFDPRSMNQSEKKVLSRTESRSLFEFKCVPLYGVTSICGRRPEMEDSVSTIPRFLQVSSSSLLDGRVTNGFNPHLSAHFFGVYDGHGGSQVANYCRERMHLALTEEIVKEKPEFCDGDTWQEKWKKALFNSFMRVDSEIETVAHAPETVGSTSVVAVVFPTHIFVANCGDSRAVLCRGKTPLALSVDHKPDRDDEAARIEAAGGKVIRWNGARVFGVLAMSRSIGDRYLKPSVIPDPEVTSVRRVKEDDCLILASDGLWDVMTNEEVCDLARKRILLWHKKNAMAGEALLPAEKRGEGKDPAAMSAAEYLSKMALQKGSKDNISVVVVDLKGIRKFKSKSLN

Target: ABI2, BiFC fusion (pSPYNE-ABI2) (UniProt O04719)
Experiment: split reporter; BiFC (split YFP); Agrobacterium GV3101 infiltration of Nicotiana tabacum leaves, 72 h, confocal or epifluorescence microscopy (results speak of Arabidopsis protoplasts)

B1: RCAR1, BiFC fusion (pSPYCE-RCAR1) (protein, UniProt Q84MC7 1-187)
chain: MMDGVEGGTAMYGGLETVQYVRTHHQHLCRENQCTSALVKHIKAPLHLVWSLVRRFDQPQKYKPFVSRCTVIGDPEIGSLREVNVKSGLPATTSTERLELLDDEEHILGIKIIGGDHRLKNYSSILTVHPEIIEGRAGTMVIESFVVDVPQGNTKDETCYFVEALIRCNLKSLADVSERLASQDITQ
With B1 the binding was “binds”.
